From publication PMC12109253
No constants are given. Whether binding was seen depends on the method and setting. In cells and extracts the contact can be indirect. Some results given as binding are weak or reduced against the parent protein; the word gives no strength.

Molecular target: T1, Mrp5 (protein of the small subunit of the mitoribosome, mtSSU) (S. pombe (endogenous in S. pombe cells)) (UniProt Q10234)
T1 sequence: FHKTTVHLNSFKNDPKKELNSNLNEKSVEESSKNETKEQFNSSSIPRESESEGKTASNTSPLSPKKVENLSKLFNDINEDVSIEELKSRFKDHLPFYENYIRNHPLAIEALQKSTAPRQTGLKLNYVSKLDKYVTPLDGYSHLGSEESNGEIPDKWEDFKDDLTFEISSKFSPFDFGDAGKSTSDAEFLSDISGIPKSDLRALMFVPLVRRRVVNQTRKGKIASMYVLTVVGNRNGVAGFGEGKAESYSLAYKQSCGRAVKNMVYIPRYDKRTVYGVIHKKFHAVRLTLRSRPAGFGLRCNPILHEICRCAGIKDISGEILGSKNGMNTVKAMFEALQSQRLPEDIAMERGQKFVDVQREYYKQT
Test: co-sedimentation; 10-34% sucrose gradient of digitonin lysates of crude mitochondria (20 mM HEPES pH 7.5, 100 mM KCl, 10 mM MgCl2); wild-type, mti2Δinsertion and Δmti2 strains; 12 fractions, Western blot

binding: binds
B1: Mti3 (S. pombe mitochondrial translation initiation factor 3) (protein, UniProt Q76PC7 40-233)
chain: AKLSNSIKKYFDGRIDESIKYQEIFIRGLENKGKLSKTSLVEALARVRAKPETVLYKVADPNENNKYPICSIISYTELSKLRENQSSRLREAEKSKHKNKTRTRYVLFSWRTDVNDIERKLKSVKDFLQDGNIVEIHVQNKKRSQPVSQEVRDSILSKIQLEIEGLGKDMKPPIVNSHSATFLLQPLVSKSSEL
